No constants are given. Whether binding was seen depends on the method and setting. In cells and extracts the contact can be indirect. A result given as binding can be weak or reduced; the word gives no strength. For some assays here: Tags and fused reporters may be left off the sequences shown.

In publication PMC6034753 one finds binding data, which are given here for eight molecules.

The target in assay [1] is T1, Meq full length (339 aa), pcDNA3.1-Meq (Marek's disease virus) (UniProt Q9DGW5).
T1 sequence: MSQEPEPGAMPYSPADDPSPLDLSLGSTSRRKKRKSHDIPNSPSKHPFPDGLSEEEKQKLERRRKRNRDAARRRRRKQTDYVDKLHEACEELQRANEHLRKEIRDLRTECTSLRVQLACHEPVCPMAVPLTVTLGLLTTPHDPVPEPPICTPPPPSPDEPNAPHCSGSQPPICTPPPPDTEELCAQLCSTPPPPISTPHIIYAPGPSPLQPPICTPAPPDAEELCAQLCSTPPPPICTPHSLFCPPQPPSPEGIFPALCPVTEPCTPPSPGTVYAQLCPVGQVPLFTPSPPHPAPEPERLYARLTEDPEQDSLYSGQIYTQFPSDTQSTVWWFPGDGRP
The assay can be described thus: co-IP; DF-1 cells co-transfected with Meq (wild type or mutant) and FLAG-apoptin, lysed after 24-48 h, pre-cleared; precipitated with rabbit anti-Meq (blot FLAG) or anti-FLAG (blot monoclonal Meq) and protein-G sepharose beads; rabbit anti-mouse as isotype control.

Assay [2] concerns the target N-terminal GST-apoptin fusion protein (chicken anemia virus). The assay can be described thus: pull-down; GST-apoptin on glutathione sepharose beads incubated with MSB-1 cell lysate; western blot with anti-Meq monoclonal antibody FD7; GST as negative control; only the target purified.
Assay [3] addresses N-terminal FLAG-tagged full length apoptin (pcDNA3.1) (chicken anemia virus). As to the kind of experiment: co-IP; DF-1 cells co-transfected with N-terminal HA-tagged Meq (full length or C-terminal truncations) and FLAG-apoptin; precipitated with anti-Meq or anti-FLAG; blot with HA-HRP conjugate antibody; mouse anti-Myc as isotype control.
Assay [4] shares this target. The assay can be described thus: co-IP; DF-1 cells co-transfected with Meq (wild type or mutant) and FLAG-apoptin, lysed after 24-48 h, pre-cleared; precipitated with rabbit anti-Meq (blot FLAG) or anti-FLAG (blot monoclonal Meq) and protein-G sepharose beads; rabbit anti-mouse as isotype control.

Take “N-terminal FLAG-tagged full length apoptin (pcDNA3.1) (chicken anemia virus)”: in assay [1], the binding entry was “binds”.

B1: Meq, endogenous in MSB-1 cells (protein, UniProt Q9DGW5 1-339)
chain: MSQEPEPGAMPYSPADDPSPLDLSLGSTSRRKKRKSHDIPNSPSKHPFPDGLSEEEKQKLERRRKRNRDAARRRRRKQTDYVDKLHEACEELQRANEHLRKEIRDLRTECTSLRVQLACHEPVCPMAVPLTVTLGLLTTPHDPVPEPPICTPPPPSPDEPNAPHCSGSQPPICTPPPPDTEELCAQLCSTPPPPISTPHIIYAPGPSPLQPPICTPAPPDAEELCAQLCSTPPPPICTPHSLFCPPQPPSPEGIFPALCPVTEPCTPPSPGTVYAQLCPVGQVPLFTPSPPHPAPEPERLYARLTEDPEQDSLYSGQIYTQFPSDTQSTVWWFPGDGRP
On to B1, for which the binding result in assay [2] is “binds”.

B2: N-terminal HA tagged full length Meq (1-339) (protein, UniProt Q9DGW5 1-339)
chain: MSQEPEPGAMPYSPADDPSPLDLSLGSTSRRKKRKSHDIPNSPSKHPFPDGLSEEEKQKLERRRKRNRDAARRRRRKQTDYVDKLHEACEELQRANEHLRKEIRDLRTECTSLRVQLACHEPVCPMAVPLTVTLGLLTTPHDPVPEPPICTPPPPSPDEPNAPHCSGSQPPICTPPPPDTEELCAQLCSTPPPPISTPHIIYAPGPSPLQPPICTPAPPDAEELCAQLCSTPPPPICTPHSLFCPPQPPSPEGIFPALCPVTEPCTPPSPGTVYAQLCPVGQVPLFTPSPPHPAPEPERLYARLTEDPEQDSLYSGQIYTQFPSDTQSTVWWFPGDGRP
Take B2: the binding entry in assay [3] is “binds”.

B3: Meq full length (339 aa), pcDNA3.1-Meq (protein, UniProt Q9DGW5 1-339)
chain: MSQEPEPGAMPYSPADDPSPLDLSLGSTSRRKKRKSHDIPNSPSKHPFPDGLSEEEKQKLERRRKRNRDAARRRRRKQTDYVDKLHEACEELQRANEHLRKEIRDLRTECTSLRVQLACHEPVCPMAVPLTVTLGLLTTPHDPVPEPPICTPPPPSPDEPNAPHCSGSQPPICTPPPPDTEELCAQLCSTPPPPISTPHIIYAPGPSPLQPPICTPAPPDAEELCAQLCSTPPPPICTPHSLFCPPQPPSPEGIFPALCPVTEPCTPPSPGTVYAQLCPVGQVPLFTPSPPHPAPEPERLYARLTEDPEQDSLYSGQIYTQFPSDTQSTVWWFPGDGRP
As for B3, in assay [4], the binding result is “binds”.

B4: N-terminal HA tagged C-terminal truncated Meq 1-80 (domain or fragment, UniProt Q9DGW5 1-80)
chain: MSQEPEPGAMPYSPADDPSPLDLSLGSTSRRKKRKSHDIPNSPSKHPFPDGLSEEEKQKLERRRKRNRDAARRRRRKQTD
Regarding B4, in assay [3], the binding entry is listed as “no binding”.

B5: N-terminal HA tagged C-terminal truncated Meq 1-140 (domain or fragment, UniProt Q9DGW5 1-140)
chain: MSQEPEPGAMPYSPADDPSPLDLSLGSTSRRKKRKSHDIPNSPSKHPFPDGLSEEEKQKLERRRKRNRDAARRRRRKQTDYVDKLHEACEELQRANEHLRKEIRDLRTECTSLRVQLACHEPVCPMAVPLTVTLGLLTTP
Turning to B5, in assay [3], the binding result is on record as “binds”.

B6: N-terminal HA tagged C-terminal truncated Meq 1-170 (domain or fragment, UniProt Q9DGW5 1-170)
chain: MSQEPEPGAMPYSPADDPSPLDLSLGSTSRRKKRKSHDIPNSPSKHPFPDGLSEEEKQKLERRRKRNRDAARRRRRKQTDYVDKLHEACEELQRANEHLRKEIRDLRTECTSLRVQLACHEPVCPMAVPLTVTLGLLTTPHDPVPEPPICTPPPPSPDEPNAPHCSGSQP
B6: the binding result in assay [3] is “binds”.

B7: N-terminal HA tagged C-terminal truncated Meq 1-130 (domain or fragment, UniProt Q9DGW5 1-130)
chain: MSQEPEPGAMPYSPADDPSPLDLSLGSTSRRKKRKSHDIPNSPSKHPFPDGLSEEEKQKLERRRKRNRDAARRRRRKQTDYVDKLHEACEELQRANEHLRKEIRDLRTECTSLRVQLACHEPVCPMAVPL
B7: the binding result in assay [3] is listed as “no binding”.
